Experiment [1] addresses GST-Bsd (Back seat driver, CG8878) (Drosophila) (UniProt Q7KMI3). Briefly: affinity purification with mass spectrometry; GST-Bsd (or GST) bound to glutathione sepharose beads, incubated with 12-24 h embryo lysate at 4 °C for 4 h, washed three times, LC-MS; only the target purified.
Experiment [2] shares this target. Described as above. The source holds these as a separate data set.

The chains behind the UniProt entries cited, without tags or fusion partners.
UniProt Q9VK45: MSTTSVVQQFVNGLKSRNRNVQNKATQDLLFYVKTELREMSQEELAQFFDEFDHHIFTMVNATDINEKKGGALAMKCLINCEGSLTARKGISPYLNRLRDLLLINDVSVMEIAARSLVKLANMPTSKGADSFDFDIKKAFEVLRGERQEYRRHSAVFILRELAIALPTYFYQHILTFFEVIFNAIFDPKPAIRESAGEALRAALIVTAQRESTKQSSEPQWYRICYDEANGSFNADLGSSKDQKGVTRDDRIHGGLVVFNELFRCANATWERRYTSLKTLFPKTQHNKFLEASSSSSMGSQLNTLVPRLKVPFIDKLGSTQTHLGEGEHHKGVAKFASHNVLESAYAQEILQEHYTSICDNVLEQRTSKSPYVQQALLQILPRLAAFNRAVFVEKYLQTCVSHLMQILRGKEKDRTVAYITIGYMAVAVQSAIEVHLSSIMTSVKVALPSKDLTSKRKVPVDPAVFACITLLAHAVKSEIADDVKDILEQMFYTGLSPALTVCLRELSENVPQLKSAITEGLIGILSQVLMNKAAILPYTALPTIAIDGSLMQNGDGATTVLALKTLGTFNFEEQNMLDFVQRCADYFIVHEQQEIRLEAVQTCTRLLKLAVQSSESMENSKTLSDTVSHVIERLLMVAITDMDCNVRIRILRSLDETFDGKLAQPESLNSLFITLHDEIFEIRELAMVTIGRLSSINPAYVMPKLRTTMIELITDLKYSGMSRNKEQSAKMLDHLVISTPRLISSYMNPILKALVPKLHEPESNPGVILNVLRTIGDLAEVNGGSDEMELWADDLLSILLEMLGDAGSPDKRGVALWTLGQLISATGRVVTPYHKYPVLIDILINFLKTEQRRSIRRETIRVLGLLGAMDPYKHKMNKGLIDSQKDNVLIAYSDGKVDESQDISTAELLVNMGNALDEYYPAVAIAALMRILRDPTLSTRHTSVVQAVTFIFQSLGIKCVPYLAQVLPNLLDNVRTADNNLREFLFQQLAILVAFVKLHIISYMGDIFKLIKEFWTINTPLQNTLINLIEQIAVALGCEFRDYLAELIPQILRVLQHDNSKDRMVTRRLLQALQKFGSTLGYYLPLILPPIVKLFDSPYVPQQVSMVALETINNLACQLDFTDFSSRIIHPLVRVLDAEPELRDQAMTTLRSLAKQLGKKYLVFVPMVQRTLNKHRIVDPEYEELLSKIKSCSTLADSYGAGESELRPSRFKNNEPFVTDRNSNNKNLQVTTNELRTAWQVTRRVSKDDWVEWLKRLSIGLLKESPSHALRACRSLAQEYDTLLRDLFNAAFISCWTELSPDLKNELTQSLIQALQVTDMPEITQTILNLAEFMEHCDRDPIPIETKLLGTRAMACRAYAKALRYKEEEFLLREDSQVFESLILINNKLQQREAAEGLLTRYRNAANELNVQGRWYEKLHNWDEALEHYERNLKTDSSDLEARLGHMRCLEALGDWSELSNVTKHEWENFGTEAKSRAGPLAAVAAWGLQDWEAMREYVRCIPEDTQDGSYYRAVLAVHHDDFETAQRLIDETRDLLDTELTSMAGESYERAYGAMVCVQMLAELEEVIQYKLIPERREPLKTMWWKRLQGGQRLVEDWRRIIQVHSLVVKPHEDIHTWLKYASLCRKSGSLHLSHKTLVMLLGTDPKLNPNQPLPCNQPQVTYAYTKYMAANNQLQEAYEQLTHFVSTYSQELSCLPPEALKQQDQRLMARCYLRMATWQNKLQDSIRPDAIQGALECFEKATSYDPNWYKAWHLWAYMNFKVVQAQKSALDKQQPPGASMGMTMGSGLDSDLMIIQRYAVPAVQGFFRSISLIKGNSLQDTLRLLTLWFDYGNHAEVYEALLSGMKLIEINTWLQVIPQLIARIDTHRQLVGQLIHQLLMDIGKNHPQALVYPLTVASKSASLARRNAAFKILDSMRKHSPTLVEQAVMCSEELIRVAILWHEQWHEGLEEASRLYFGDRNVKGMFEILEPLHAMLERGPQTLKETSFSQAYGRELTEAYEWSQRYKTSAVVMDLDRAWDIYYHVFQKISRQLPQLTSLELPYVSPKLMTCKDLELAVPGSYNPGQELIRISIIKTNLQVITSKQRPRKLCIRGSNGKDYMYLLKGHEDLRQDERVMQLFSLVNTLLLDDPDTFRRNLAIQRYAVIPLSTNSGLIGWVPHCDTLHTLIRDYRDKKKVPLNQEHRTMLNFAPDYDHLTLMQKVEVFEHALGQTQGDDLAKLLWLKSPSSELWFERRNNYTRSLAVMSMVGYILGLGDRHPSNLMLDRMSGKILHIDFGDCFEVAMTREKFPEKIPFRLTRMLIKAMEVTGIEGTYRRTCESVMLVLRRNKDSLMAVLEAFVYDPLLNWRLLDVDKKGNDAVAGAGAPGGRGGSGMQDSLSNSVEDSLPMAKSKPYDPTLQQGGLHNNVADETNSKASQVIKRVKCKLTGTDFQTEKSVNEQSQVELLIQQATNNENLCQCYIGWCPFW

Where two headings read alike, the source gives them in different places. No constants are given. Whether binding was seen depends on the method and setting. Binding seen in cells or lysates may run through a third protein. Here binding means that the protein was enriched with, or labelled near, the bait; the list need not be complete.

Regarding “Target of Rapamycin (endogenous, embryo lysate) (from UniProt Q9VK45 1-2470) (enzyme)”, the binding entry in experiment [1] is reported as “binds”.

B1: Yp3 (endogenous, embryo lysate) (protein, UniProt P06607 20-420)
chain: SKDASNDRLKPTKWLTATELENVPSLNDITWERLENQPLEQGAKVIEKIYHVGQIKHDLTPSFVPSPSNVPVWIIKSNGQKVECKLNNYVETAKAQPGFGEDEVTIVLTGLPKTSPAQQKAMRRLIQAYVQKYNLQQLQKNAQEQQQQLKSSDYDYTSSEEAADQWKSAKAASGDLIIIDLGSTLTNFKRYAMLDVLNTGAMIGQTLIDLTNKGVPQEIIHLIGQGISAHVAGAAGNKYTAQTGHKLRRITGLDPAKVLSKRPQILGGLSRGDADFVDAIHTSTFAMGTPIRCGDVDFYPNGPSTGVPGSENVIEAVARATRYFAESVRPGSERNFPAVPANSLKQYKEQDGFGKRAYMGLQIDYDLRGDYILEVNAKSPFGQRSPAHKQAAYHGMHHAQN
On to B1, for which the binding result in experiment [2] was “binds”.

B2: Jaguar (Jar, Myosin VI; endogenous, embryo lysate) (protein, UniProt Q01989 1-1253)
chain: MLEDTQLVWVRDAAEGYIQGRITEIGAKEFEVTPTDRKYPKRTCHFDDIHSSCDGPQDHDDNCELMLLNEATFLDNLKTRYYKDKIYTYVANILIAVNPYREIKELYAPDTIKKYNGRSLGELPPHVFAIADKAIRDMRVYKLSQSIIVSGESGAGKTESTKYLLKYLCYSHDSAGPIETKILDANPVLEAFGNAKTTRNNNSSRFGKFIEVHYDAKCQVVGGYISHYLLEKSRICTQSAEERNYHVFYMLLAGAPQQLRDKLSLGKPDDYRYLSGCTQYFANAKTEQLIPGSQKSKNHQQKGPLKDPIIDDYQHFHNLDKALGRLGLSDTEKLGIYSLVAAVLHLGNIAFEEIPDDVRGGCQVSEASEQSLTITSGLLGVDQTELRTALVSRVMQSKGGGFKGTVIMVPLKIYEASNARDALAKAIYSRLFDRIVGLINQSIPFQASNFYIGVLDIAGFEYFTVNSFEQFCINYCNEKLQKFFNDNILKNEQELYKREGLNVPEITFTDNQDIIELIEAKSNGIFTLLDEESKLPKPSYSHFTAEVHKSWANHYRLGLPRSSRLKAHRTLRDEEGFLVRHFAGAVCYNTEQFIEKNNDALHASLEGLVQECDNPLLQTLFPSGSSTSVRGKLNFISVGSKFKTQLGELMEKLEQNGTNFIRCIKPNSKMIDRQFEGSLALAQLKCSGTISVLELMEHGYPSRVLFADLYSMYKSVLPPELVSLPARTFCEAMFQSLNLSAKDFKFGITKVFFRPGKFVEFDRIMRSDPENMLAIVAKVKKWLIRSRWVKSALGALCVIKLRNRIIYRNKCVLIAQRIARGFLARKQHRPRYQGIGKINKIRTNTLKTIEIASGLKMGREEIISGVNDIYRQIDDAIKKIKMNPRITQREMDSMYTVVMANMNKLTVDLNTKLKEQQQAEEQERLRKIQEALEAERAAKEAEEQRQREEIENKRLKAEMETRRKAAEAQRLRQEEEDRRAALALQEQLEKEAKDDAKYRQQLEQERRDHELALRLANESNGQVEDSPPVIRNGVNDASPMGPNKLIRSENVRAQQQALGKQKYDLSKWKYSELRDAINTSCDIELLEACRQEFHRRLKVYHAWKAKNRKRTTMDENERAPRSVMEAAFKQPPLVQPIQEIVTAQHRYFRIPFMRANAPDNTKRGLWYAHFDGQWIARQMELHADKPPILLVAGTDDMQMCELSLEETGLTRKRGAEILEHEFNREWERNGGKAYKNLGAAKPNGPAAAMQKQQ
B2: the binding result in experiment [2] was “binds”.

For the origin of these results see article PMC8828718.
